# Primary screen of a compound library

Protein sequences, listed by entry. Tags and fused reporters are not part of them. Residues count along the entry.
UniProt Q4DA54, 1-478: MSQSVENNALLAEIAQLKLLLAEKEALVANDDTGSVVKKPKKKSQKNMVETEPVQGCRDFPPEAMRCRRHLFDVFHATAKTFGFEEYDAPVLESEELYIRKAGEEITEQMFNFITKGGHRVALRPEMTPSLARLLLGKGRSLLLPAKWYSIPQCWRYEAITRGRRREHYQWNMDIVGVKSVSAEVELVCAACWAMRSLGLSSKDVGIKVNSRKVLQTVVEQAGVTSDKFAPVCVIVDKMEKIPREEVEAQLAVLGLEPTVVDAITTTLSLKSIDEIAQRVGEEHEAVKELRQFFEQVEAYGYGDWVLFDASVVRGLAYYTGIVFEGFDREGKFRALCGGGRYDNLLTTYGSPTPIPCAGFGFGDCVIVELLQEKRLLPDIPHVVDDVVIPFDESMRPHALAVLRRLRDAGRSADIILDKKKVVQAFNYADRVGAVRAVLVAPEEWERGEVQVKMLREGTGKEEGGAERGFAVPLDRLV
UniProt A4I591, 1-473: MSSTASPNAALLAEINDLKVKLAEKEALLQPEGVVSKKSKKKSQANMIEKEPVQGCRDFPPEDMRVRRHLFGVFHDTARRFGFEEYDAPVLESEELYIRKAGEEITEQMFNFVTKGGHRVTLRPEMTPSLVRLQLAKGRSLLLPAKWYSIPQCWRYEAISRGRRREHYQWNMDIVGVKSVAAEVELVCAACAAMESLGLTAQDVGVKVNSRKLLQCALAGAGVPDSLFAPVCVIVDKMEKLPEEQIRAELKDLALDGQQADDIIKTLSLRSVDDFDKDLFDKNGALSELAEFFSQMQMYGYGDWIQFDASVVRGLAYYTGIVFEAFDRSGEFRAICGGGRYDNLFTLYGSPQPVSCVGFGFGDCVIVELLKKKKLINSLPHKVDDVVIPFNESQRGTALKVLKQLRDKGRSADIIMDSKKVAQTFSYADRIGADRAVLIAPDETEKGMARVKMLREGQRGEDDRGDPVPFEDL
UniProt Q8IDJ8, 1-583: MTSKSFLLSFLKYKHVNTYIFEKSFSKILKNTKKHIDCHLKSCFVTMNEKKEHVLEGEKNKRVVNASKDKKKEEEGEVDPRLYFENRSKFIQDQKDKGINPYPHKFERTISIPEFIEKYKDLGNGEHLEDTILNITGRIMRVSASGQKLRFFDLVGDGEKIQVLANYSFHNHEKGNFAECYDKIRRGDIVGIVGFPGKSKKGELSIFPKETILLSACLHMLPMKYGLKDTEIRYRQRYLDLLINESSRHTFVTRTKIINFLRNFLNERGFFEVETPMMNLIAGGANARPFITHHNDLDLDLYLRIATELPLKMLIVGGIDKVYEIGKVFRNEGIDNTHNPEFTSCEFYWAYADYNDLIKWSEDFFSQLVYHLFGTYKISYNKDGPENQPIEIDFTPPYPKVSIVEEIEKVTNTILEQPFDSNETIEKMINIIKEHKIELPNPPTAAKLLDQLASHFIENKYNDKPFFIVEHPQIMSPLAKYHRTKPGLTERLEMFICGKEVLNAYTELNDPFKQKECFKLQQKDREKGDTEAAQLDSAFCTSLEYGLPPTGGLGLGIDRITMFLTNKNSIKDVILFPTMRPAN
UniProt P9WNZ1, whole entry: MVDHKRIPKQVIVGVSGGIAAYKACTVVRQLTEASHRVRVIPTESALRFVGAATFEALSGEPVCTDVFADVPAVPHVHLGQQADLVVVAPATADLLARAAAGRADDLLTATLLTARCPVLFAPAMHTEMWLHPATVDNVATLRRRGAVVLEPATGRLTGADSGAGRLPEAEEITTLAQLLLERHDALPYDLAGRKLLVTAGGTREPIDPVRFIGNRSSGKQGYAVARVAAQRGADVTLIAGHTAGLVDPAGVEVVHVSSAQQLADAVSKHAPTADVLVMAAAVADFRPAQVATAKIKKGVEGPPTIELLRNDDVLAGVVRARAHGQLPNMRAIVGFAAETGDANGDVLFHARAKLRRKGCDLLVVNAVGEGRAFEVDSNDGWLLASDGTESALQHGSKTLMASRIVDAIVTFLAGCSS

TcHisRS: 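Enzyme assay of histidyl-tRNA synthetase; the read-out is not stated. Target: Histidine-tRNA ligase, Trypanosoma cruzi CL Brener (UniProt Q4DA54). Compounds at 30 µM. Higher reads as stronger inhibition (inferred: compounds with an IC50 in retests scored well above the rest). Of about 69,000 compounds tested this way, about 31 (0.045%) reached 50% or more in at least one test.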
LiHisRS: 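Histidine-tRNA ligase, Leishmania infantum (UniProt A4I591). Enzyme assay of histidyl-tRNA synthetase; the read-out is not stated. Concentration: 30 µM. Direction is inferred from retests: higher values go with stronger inhibition. The assay is labelled LdHisRS but filed under L. infantum. Size under these conditions: about 69,000 compounds, about 410 of them at 50% or above in at least one test.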
Toxoplasma: 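Assay of Toxoplasma gondii numbers, read through their beta-galactosidase reporter with a colour substrate. Compounds at 10 µM. The record gives no direction; the compounds picked for IC50 retests had high values, so higher reads as fewer parasites. Size under these conditions: about 67,000 compounds, about 260 of them at 50% or above in at least one test.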
PfKRS1: 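Lysine-tRNA ligase, Plasmodium falciparum 3D7 (UniProt Q8IDJ8). Enzyme assay of the cytosolic lysyl-tRNA synthetase in 384-well plates, read by luminescence. Concentration: 30 µM. Direction is inferred from only a few compounds that gave an IC50; most scored high, so higher reads as stronger inhibition. Size under these conditions: about 69,000 compounds, about 49 of them at 50% or above in at least one test.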
CoaBC: 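Coenzyme A biosynthesis protein CoaBC, Mycobacterium tuberculosis (UniProt P9WNZ1). Enzyme assay of CoaBC with a phosphate dye (Biomol Green) read at 650 nm. Concentration: 30 µM. Direction is inferred from only a few compounds that gave an IC50; most scored high, so higher reads as stronger inhibition. Most strong results did not repeat in a second test. Size under these conditions: about 67,000 compounds, about 40 of them at 50% or above in at least one test.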

Each number is a percent effect as filed. The controls that fix the scale are not given in the record; negative values are as filed. Compounds were drawn at random from those tested, without regard to their results.

structure: Cc1cccnc1CN1CCN(C(=O)[C@@]23CNC[C@@H]2CN(C)C3)CC1
TcHisRS: 2.4
LiHisRS: 14.75
PfKRS1: 0.9629
CoaBC: -20.13

structure: O=c1[nH]c2c(c(=O)n1C1CCCCC1)CCC2Nc1ccccn1 (stereo not drawn)
TcHisRS: -13.45
LiHisRS: 5.263
Toxoplasma: 16.2
PfKRS1: 28.08
CoaBC: -1.263

structure: CCOC(=O)C1CCN(C(=O)c2cnn(-c3ccc(C)cc3)c2N)CC1
TcHisRS: 9.091
LiHisRS: 19.8
Toxoplasma: 12.02
PfKRS1: 2.609
CoaBC: 3.883

structure: CC(C)NC(=O)NC[C@H]1OC[C@@H](NCc2ccccc2F)[C@@H]1O
TcHisRS: -3.483
LiHisRS: 8.333
Toxoplasma: 0.6158
PfKRS1: 2.202
CoaBC: 7.419

structure: O=C1[C@H]2CN(Cc3ccc(F)cc3)C[C@H]2CN1c1cncnc1
TcHisRS: 5.941
LiHisRS: 28.77
PfKRS1: 8.288
CoaBC: -2.773

structure: Cc1nc(CN2CCc3ncnc(C4CC4)c3CC2)cs1.O=C(O)C(F)(F)F
Toxoplasma: -15.75

structure: O=C(O)C(F)(F)F.[H][C@@]12OCCC[C@]1([H])N(C(=O)c1cnccn1)C[C@H]2OCc1ccncc1
Toxoplasma: 16.59

structure: O=C(NC1CC(=O)N(Cc2cccc(F)c2)C1)c1ccncc1 (stereo not drawn)
TcHisRS: 2.5
LiHisRS: 5.769
Toxoplasma: -1.385
PfKRS1: 1.341
CoaBC: -3.198

structure: CC(C)CN1CCC2(CC1)C(=O)Nc1ccc(C(=O)N(C)C)cc12
TcHisRS: 3.39
LiHisRS: 20.75
PfKRS1: 5.168
CoaBC: 2.203

structure: CN(CCc1cn[nH]c1)C(=O)C1CC(=O)N(Cc2ccccn2)C1 (stereo not drawn)
TcHisRS: 3.571
LiHisRS: 15.56
Toxoplasma: -0.4764
PfKRS1: 1.867
CoaBC: 2.941

structure: Cc1cccc(N2CCCC3(C2)CN(c2nncs2)CCO3)c1 (stereo not drawn)
TcHisRS: 6.452
LiHisRS: 16.81
Toxoplasma: -48.31
PfKRS1: -8.161
CoaBC: -1.053

structure: CCOC(=O)C1(Cc2cccc(OC)c2)CCN(Cc2ccon2)CC1
TcHisRS: -2.899
LiHisRS: 12.5
Toxoplasma: -9.581
PfKRS1: 5.139
CoaBC: 3.602

structure: CN(Cc1cnc(N)nc1)C(=O)C1CC(=O)N(Cc2ccncc2)C1 (stereo not drawn)
TcHisRS: -2.326
LiHisRS: 8.197
Toxoplasma: 20.81
PfKRS1: 7.953
CoaBC: 1.717

structure: Cl.Cn1ccnc1C1(O)CCN(C(=O)Cc2ccccc2)CC1
Toxoplasma: 9.556

structure: Cc1ncsc1CN1CC[C@H](O)[C@@H](n2cnc3c(N)ncnc32)CC1
TcHisRS: 1.099
LiHisRS: -7.246
Toxoplasma: 6.751
PfKRS1: -3.317
CoaBC: -3.641

structure: CCN(CC)Cc1cn2c(n1)CN(C(=O)Cc1ccsc1)CC2.O=C(O)C(F)(F)F
Toxoplasma: 11.91

structure: C[C@@H]1CN(Cc2cn(C)nc2-c2ccccc2F)C[C@H](C)O1
TcHisRS: -2.609
LiHisRS: 8.333
Toxoplasma: 16.89
PfKRS1: 3.998
CoaBC: 13.89

structure: COCCn1ccc(=O)c(OCC(=O)Nc2ccc(OC)c(Cl)c2)c1C
TcHisRS: 0
LiHisRS: 7.609
Toxoplasma: 30.86
PfKRS1: -3.056
CoaBC: 1.574

structure: CN(C)c1cc(C(=O)NCC2(c3ccc(F)cc3)CC2)ccn1
TcHisRS: 0.9804
LiHisRS: 17.65
Toxoplasma: 1.957
PfKRS1: 4.479
CoaBC: -1.789

structure: CN(Cc1cc(-c2ccccc2)no1)C1CCCN(c2cccnn2)C1 (stereo not drawn)
TcHisRS: 8.397
LiHisRS: 24.66
Toxoplasma: 3.07
PfKRS1: 6.48
CoaBC: 1.687

structure: Cc1nn(C(C)C)cc1S(=O)(=O)N(C)Cc1nonc1C
TcHisRS: 3.101
LiHisRS: 12.77
Toxoplasma: 2.535
PfKRS1: 0.7153
CoaBC: -3.313

structure: Cc1ncc(CN2CCC(N(C)Cc3noc(C4CC4)n3)C2)s1 (stereo not drawn)
TcHisRS: 3.529
LiHisRS: 7.339
Toxoplasma: 45.77
PfKRS1: 0.974
CoaBC: -2.302

structure: Cc1nc(CCN2CCC(Oc3ccccc3F)CC2)cs1
TcHisRS: 5.102
LiHisRS: 1.653
Toxoplasma: -4.299
PfKRS1: -0.9286
CoaBC: -1.623

structure: [H][C@]12CCCN(C(=O)c3ccsc3)[C@@]1([H])CN(C(=O)c1ccco1)C2
Toxoplasma: -3.183

structure: [H][C@]12CC[C@]([H])(CN(c3ncccc3F)C1)N(CC=C(C)C)C2=O
Toxoplasma: -15.79

structure: CCOc1ccc(SCCNS(=O)(=O)CC)cc1
TcHisRS: 1.01
LiHisRS: 1.064
Toxoplasma: -10.44
PfKRS1: 3.708
CoaBC: 6.734

structure: O=C1N(Cc2ccc(F)c(F)c2)CCCC1(O)CNCc1ncc[nH]1 (stereo not drawn)
TcHisRS: 3.139
LiHisRS: 20
Toxoplasma: 8.558
PfKRS1: 5.218
CoaBC: 1.015

structure: CO[C@@H]1CN(c2ccccc2)S(=O)(=O)[C@@]12CCN(Cc1ccccc1)C2
TcHisRS: 4.494
LiHisRS: 2.041
Toxoplasma: -25.99
PfKRS1: 4.642
CoaBC: 0.2421

structure: Cc1occc1C(=O)N1CCC2(CCN(Cc3ccccn3)C2=O)C1.O=C(O)C(F)(F)F (stereo not drawn)
Toxoplasma: -7.909

For reference, 3 entries once more:

| structure | TcHisRS | LiHisRS | Toxoplasma | PfKRS1 | CoaBC |
|---|---|---|---|---|---|
| `CN(CCc1cn[nH]c1)C(=O)C1CC(=O)N(Cc2ccccn2)C1` (stereo not drawn) | 3.571 | 15.56 | -0.4764 | 1.867 | 2.941 |
| `CCOC(=O)C1(Cc2cccc(OC)c2)CCN(Cc2ccon2)CC1` | -2.899 | 12.5 | -9.581 | 5.139 | 3.602 |
| `O=C1N(Cc2ccc(F)c(F)c2)CCCC1(O)CNCc1ncc[nH]1` (stereo not drawn) | 3.139 | 20 | 8.558 | 5.218 | 1.015 |

From ChEMBL document CHEMBL3988442, “University of Dundee, Small-Polar-MMV Screening Library” (2021).